Results as given in patent US20090048216A1, “INTRAVENOUS AND ORAL DOSING OF A DIRECT-ACTING AND REVERSIBLE P2Y12 INHIBITOR” (Portola Pharmaceuticals, Inc., priority 2007, published 2009).
“Also recorded” adds a separate entry of the source. At least one compound was matched to its structure with a doubt left.

Assays:
[1] = tested on: collagen-induced platelet thrombosis; assay: Real Time Thrombosis Profiler (RTTP) ex vivo after oral dosing; type: in vivo, human; conditions: oral 100 mg
Method: Rhodamine 6G (1.25 μg/ml final concentration) was added to the blood, mixed by gentle inversion, and the tube was incubated at ˜37° C. for 20 min. Subsequently, the rhodamine-labeled blood was perfused through a rectangular glass capillary coated with type III collagen at an arterial shear rate (˜1600 sec^−1) and the extent of thrombus formation on the collagen surface was monitored for 5-7 min by the accumulation of fluorescently-labeled platelets using a video camera. The extent of the overall thrombotic process (e.g., accumulation of fluorescently-labeled platelets over time) was determined by analysis of various parameters derived from the curve generated from mean fluorescence intensity vs time (sec). These parameters may include slope, area under the curve, and endpoint.
In yet another part of the study, the effects of the oral treatments in the human subjects was investigated using a Real Time Thrombosis Profiler (RTTP) as the ex vivo assay method. The set up and principles of operation of the RTTP are depicted in FIGS. 26A, B, and C. There was a dose-dependent decrease in the RTTP collagen-induced platelet thrombosis for the subjects given the compound. A dose of 100 mg of the compound produced about a 70% inhibition. A dose of 30 mg of the compound produced a 53 percent inhibition.

[2] = tested on: collagen induced platelet aggregation; assay: Ex vivo collagen-induced platelet aggregation after oral dosing, with or without aspirin; type: in vivo, human; conditions: 30 mg orally, given alone
Text: In a further aspect of the study, the effect of aspirin and the compound together on the inhibition of collagen-induced platelet aggregation was investigated.

[3] = tested on: platelet thrombosis on a collagen surface; assay: Real Time Thrombosis Profiler (RTTP) ex vivo after IV infusion; type: in vivo, human; conditions: IV 40 mg, 20 min post infusion (Cmax); potassium salt

SMILES | relative humidity at which it rehydrates (25° C.) [% RH] | relative humidity to which the dihydrate is stable (25° C.) [% RH] | hygroscopicity (listed as Form B, potassium salt) | inhibition of thrombosis in RTTP (summary) [1] | effect in collagen induced platelet aggregation assay [2] | inhibition of thrombosis (RTTP) [3]
CNc1cc2[nH]c(=O)n(-c3ccc(NC(=O)[N-]S(=O)(=O)c4ccc(Cl)s4)cc3)c(=O)c2cc1F.[K+] [Form A] | 20 | 15 |  |  |  | 
CNc1cc2[nH]c(=O)n(-c3ccc(NC(=O)[N-]S(=O)(=O)c4ccc(Cl)s4)cc3)c(=O)c2cc1F.[K+] [PRT128] |  |  | non-hygroscopic | nearly complete inhibition | without effect | nearly complete inhibition; also recorded: reached maximal levels
